Results as given in patent US20190153061A1.
These are yes or no findings as the source states them, for the method shown. Some entries that bind do so weakly or less than the wild type.

Sequences of proteins named here, by UniProt entry; tags and fusion partners are left off. Residues count along the entry.
UniProt Q02223, residues 1-54: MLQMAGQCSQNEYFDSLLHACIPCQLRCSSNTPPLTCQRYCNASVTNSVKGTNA

How the values were obtained:
[1] = molecular target: BCMA (BCMA substrate / Bio-BCMA, form not stated) (UniProt Q02223); experiment: competition assay, RU read-out
[2] = molecular target: BCMA-Fc antigen (R&D Systems) (UniProt Q02223); experiment: flow cytometry of transduced SupT1 cells stained with BCMA-Fc
[3] = molecular target: BCMA (BCMA substrate / Bio-BCMA, form not stated) (UniProt Q02223); experiment: panning on Bio-BCMA, ELISA for BCMA reactivity, then FACS of purified scFv

Row | Binder | binding [3] | further results
1 | BCMA-4NP binding domain as used in the competition and affinity assays (scFv) scFv: QVQLVQSGAEVKKPGSSVKVSCKASGGTFSNYWMHWVRQAPGQGLEWMGATYRGHSDTYYNQKFKGRVTITADKSTSTAYMELSSLRSEDTAVYYCARGAIYNGYDVLDNWGQGTLVTVSSGGGGSGGGGSGGGGSGGGGSDIQMTQSPSSLSASVGDRVTITCSASQDISNYLNWYQQKPGKAPKLLIYYTSNLHSGVPSRFSGSGSGTDFTLTISSLQPEDFATYYCQQYRKLPWTFGQGTKLEIKR |  | binding [1]: binds
2 | BCMA-4NP tool CAR (126021) (protein, not shown: a dimerising Fc or GST) QVQLVQSGAEVKKPGSSVKVSCKASGGTFSNYWMHWVRQAPGQGLEWMGATYRGHSDTYYNQKFKGRVTITADKSTSTAYMELSSLRSEDTAVYYCARGAIYNGYDVLDNWGQGTLVTVSSGGGGSGGGGSGGGGSGGGGSDIQMTQSPSSLSASVGDRVTITCSASQDISNYLNWYQQKPGKAPKLLIYYTSNLHSGVPSRFSGSGSGTDFTLTISSLQPEDFATYYCQQYRKLPWTFGQGTKLEIKR |  | binding [2]: binds
3 | BCMA-3 scFv (139102) (scFv) scFv: QVQLVQSGAEVKKPGASVKVSCKASGYTFSNYGITWVRQAPGQGLEWMGWISAYNGNTNYAQKFQGRVTMTRNTSISTAYMELSSLRSEDTAVYYCARGPYYYYMDVWGKGTMVTVSSASGGGGSGGRASGGGGSEIVMTQSPLSLPVTPGEPASISCRSSQSLLYSNGYNYVDWYLQKPGQSPQLLIYLGSNRASGVPDRFSGSGSGTDFKLQISRVEAEDVGIYYCMQGRQFPYSFGQGTKVEIK | binds | 
4 | BCMA-2 scFv (139101) (scFv) scFv: QVQLQESGGGLVQPGGSLRLSCAASGFTFSSDAMTWVRQAPGKGLEWVSVISGSGGTTYYADSVKGRFTISRDNSKNTLYLQMNSLRAEDTAVYYCAKLDSSGYYYARGPRYWGQGTLVTVSSASGGGGSGGRASGGGGSDIQLTQSPSSLSASVGDRVTITCRASQSISSYLNWYQQKPGKAPKLLIYGASTLASGVPARFSGSGSGTHFTLTINSLQSEDSATYYCQQSYKRASFGQGTKVEIK | binds | 
5 | BCMA-4 scFv (139103) (scFv) scFv: QVQLVESGGGLVQPGRSLRLSCAASGFTFSNYAMSWVRQAPGKGLGWVSGISRSGENTYYADSVKGRFTISRDNSKNTLYLQMNSLRDEDTAVYYCARSPAHYYGGMDVWGQGTTVTVSSASGGGGSGGRASGGGGSDIVLTQSPGTLSLSPGERATLSCRASQSISSSFLAWYQQKPGQAPRLLIYGASRRATGIPDRFSGSGSGTDFTLTISRLEPEDSAVYYCQQYHSSPSWTFGQGTKLEIK | binds | 
6 | BCMA-1 scFv (139100) (scFv) scFv: QVQLVQSGAEVRKTGASVKVSCKASGYIFDNFGINWVRQAPGQGLEWMGWINPKNNNTNYAQKFQGRVTITADESTNTAYMEVSSLRSEDTAVYYCARGPYYYQSYMDVWGQGTMVTVSSASGGGGSGGRASGGGGSDIVMTQTPLSLPVTPGEPASISCRSSQSLLHSNGYNYLNWYLQKPGQSPQLLIYLGSKRASGVPDRFSGSGSGTDFTLHITRVGAEDVGVYYCMQALQTPYTFGQGTKLEIK | binds | 

Now from value to binder, other results behind:

Row | binding [3] | Binder | further results
7 | binds | BCMA-11 scFv (139110) (scFv) scFv: QVQLVQSGGGLVKPGGSLRLSCAASGFTFSDYYMSWIRQAPGKGLEWVSYISSSGNTIYYADSVKGRFTISRDNAKNSLYLQMNSLRAEDTAVYYCARSTMVREDYWGQGTLVTVSSASGGGGSGGRASGGGGSDIVLTQSPLSLPVTLGQPASISCKSSESLVHNSGKTYLNWFHQRPGQSPRRLIYEVSNRDSGVPDRFTGSGSGTDFTLKISRVEAEDVGVYYCMQGTHWPGTFGQGTKLEIK | 
8 | binds | BCMA-9 scFv (139108) (scFv) scFv: QVQLVESGGGLVKPGGSLRLSCAASGFTFSDYYMSWIRQAPGKGLEWVSYISSSGSTIYYADSVKGRFTISRDNAKNSLYLQMNSLRAEDTAVYYCARESGDGMDVWGQGTTVTVSSASGGGGSGGRASGGGGSDIQMTQSPSSLSASVGDRVTITCRASQSISSYLNWYQQKPGKAPKLLIYAASSLQSGVPSRFSGSGSGTDFTLTISSLQPEDFATYYCQQSYTLAFGQGTKVDIK | 
